Assay results reported in patent publication US11273141B2, “Low-dose carbachol compositions and methods for treatment of night vision disturbance” (VYLUMA INC., priority 2020, dated 2022).
At least one structure is not confirmed: it was looked up by name or label, or the drawing left a doubt. Some entries share one result that the patent states for a list of compounds.

How the values were obtained:
Dutch Belted Rabbits = experiment: Pupillary diameter (pupillometry) after single ocular administration, rabbit eye model; format: in vivo
Description: Study design: 3 Dutch Belted Rabbits (pigmented breed)/group received a single ocular administration of test articles (one drop per eye) at 3 concentrations (tested one week apart). After a 2-week rest period, combinations were tested. Ocular Irritation was assessed using a modified Draize test. Intraocular pressure (IOP) was measured at baseline, 1 h, 4 h, 6 h and 24 h. Pupillary Diameter was measured at baseline, 15 min, 1 h, 4 h and 6 h after dosing.
Due to the variation in pupillary diameter and IOP between rabbits and between eyes within rabbits, the data for pupillary diameter and IOP were normalized and presented with error bars (SD). A change of 15% to 20% approximates a pupillary diameter change of 1 mm. In human, a reduction of pupillary diameter of about 2 mm is clinically generally desired.

[1] = cited from earlier work
[2] = 2% (high dose) alone, listed as galantamine

SMILES: COc1ccc2c3c1O[C@H]1C[C@@H](O)C=C[C@@]31CCN(C)C2 [Galantamine]
- effect on pupillary diameter (in words) (Dutch Belted Rabbits; 2% (high dose) alone): desirable effect
- duration of reduction in pupillary diameter (Dutch Belted Rabbits; [2]): 1 to 3 h
- effect on pupillary diameter (in words) (Dutch Belted Rabbits; [2]): a reduction in pupillary diameter occurred at the high dose
- effect on pupillary diameter (in words) (Dutch Belted Rabbits; doses tested, concentration not given): very low effects as compared to carbachol

SMILES: CCN(C)C(=O)Oc1cccc([C@H](C)N(C)C)c1 [Rivastigmine]
- duration of decrease (Dutch Belted Rabbits; 1% alone): at least 6 h

SMILES: CC(=O)OC1CN2CCC1CC2 (stereo not shown) [aceclidine, 1-azabicyclo[2.2.2]octan-3-yl acetate]
- duration of physiological effect (in words) ([1]; human, in vivo): relatively extended
- reduction of NVD symptoms ([1]; selected patient after refractive surgery): provided reduction in some symptoms
